These results are taken from PubChem BioAssay AID248 (DTP/NCI, 2004).

The assay deals with L1210 leukemia ip in BDF1 mice, survival T/C. Kind of assay: NCI In Vivo Anticancer Drug Screen. Data for tumor model L1210 Leukemia (intraperitoneal) in B6D2F1 (BDF1) mice. The conditions noted are these: T/C endpoint: mean survival time, higher T/C = longer survival.
Setting [1] is: dose: 400.0 mg/kg/injection, schedule: Q04DX003 (ip), vehicle: saline with Tween-80.
Setting [2] is: dose: 150.0 mg/kg/injection, schedule: Q01DX001 (ip), vehicle: saline.
Setting [3] is: dose: 300.0 mg/kg/injection, schedule: Q01DX001 (ip), vehicle: saline.
Where [4] appears, read: dose: 400.0 mg/kg/injection, schedule: Q04DX002 (ip), vehicle: saline with Tween-80.
Setting [5] is: dose: 400.0 mg/kg/injection, schedule: Q04DX003 (ip), vehicle: Klucel (hydroxypropylcellulose) (HPC).

Molecules are shown by their SMILES. The list is a part of this screen's results and no random one: it is rich in T/C values a quarter to a half above the control, in often repeated tests (any T/C) and in doses without a T/C. Further doses and runs are listed elsewhere. T/C is the treated group as % of the vehicle group. Some entries give survivors of the animals treated and no T/C: the source holds a T/C of zero for them, seemingly a mark for toxic or unscored doses. Some doses without a T/C left all or most animals alive at the check, yet need not have been tolerated: the source hardly ever lists a survival T/C far under the control, and the zero likely stands for such cases as well. Counts of survivors are from the toxicity check (mostly the fifth day) where no day follows; animals may have died later. Schedules are NCI's codes, taken here to give the interval after Q, in days (D) or hours (H), and the number of doses after X. Where survival is the endpoint, this PubChem deposit counts one and a half times the control or more as active, and values a quarter to a half above the control carry no call in these data; other NCI protocols may use other cut-offs.

For `C/C(=N/N(C)C)c1ccc(F)cc1`, the survivor count (dose: 200.0 mg/kg/injection, schedule: Q01DX009 (ip), vehicle: saline) is reported as 3 of 6.

Turning to `CC(C)CC([NH-])C(=O)O.CC(C)CC([NH-])C(=O)O.CC(C)CC([NH-])C(=O)O.[Co+3]` (stereo not given), the survivor count by setting is: (dose: 100.0 mg/kg/injection, schedule: Q01DX009 (ip), vehicle: water) 6 of 6; (dose: 200.0 mg/kg/injection, schedule: Q01DX009 (ip), vehicle: water) 6 of 6; (dose: 400.0 mg/kg/injection, schedule: Q01DX009 (ip), vehicle: water) 0 of 6; (dose: 400.0 mg/kg/injection, schedule: Q04DX003 (ip), vehicle: water) 4 of 6.

In the case of `O=C(O)c1cscn1`, the survivor count is 2 of 3 (dose: 400.0 mg/kg/injection, schedule: Q01DX009 (ip), vehicle: saline with Tween-80) and 2 of 6 under setting [1].

As for `Cc1nc(-c2ccc(N=Cc3ccc(N(CCOS(C)(=O)=O)CCOS(C)(=O)=O)cc3Cl)cc2)c(C)s1`, for the setting “dose: 50.0 mg/kg/injection, schedule: Q01DX009 (ip), vehicle: Klucel (hydroxypropylcellulose) (HPC)”, the T/C was 135 % of control.

On to `O=Cc1nc2ccccc2cc1CCl`, for which the survivor count runs as follows: under setting [2], 0 of 6; under setting [3], 3 of 6.

`O=C(O)c1cccc(CCl)c1`: the survivor count (dose: 200.0 mg/kg/injection, schedule: Q04DX002 (ip), vehicle: saline with Tween-80) is listed as 3 of 3 and the survivor count under setting [4] is 1 of 3.

Regarding `COc1ccccc1NC(=S)N(C)C`, the survivor count under setting [1] was 0 of 6.

For `CCCCC=C1CC(C)CC(C)C1` (stereo not given), under “dose: 200.0 mg/kg/injection, schedule: Q01DX009 (ip), vehicle: saline with Tween-80”, the survivor count is reported as 3 of 3.

For `CCCCN(CC)C(=S)[S-].CCCCN(CC)C(=S)[S-].[Zn]`, the survivor count is, setting by setting: (dose: 40.0 mg/kg/injection, schedule: Q04DX003 (ip), vehicle: saline) 5 of 6; (dose: 75.0 mg/kg/injection, schedule: Q01DX001 (ip), vehicle: saline) 2 of 6; under setting [2], 0 of 6; under setting [3], 0 of 6.

Turning to `O=C1c2ccccc2C(=O)c2c(Nc3ccccc3)ccc(O)c21`, the survivor count under setting [5] was 6 of 6.

Take `CC1CCN1Cc1ccccc1` (stereo not given): the survivor count is, setting by setting: (dose: 100.0 mg/kg/injection, schedule: Q04DX003 (ip), vehicle: acetone) 6 of 6; (dose: 115.0 mg/kg/injection, schedule: Q01DX009 (ip), vehicle: saline) 3 of 6; (dose: 170.0 mg/kg/injection, schedule: Q01DX009 (ip), vehicle: saline) 0 of 6; (dose: 200.0 mg/kg/injection, schedule: Q04DX003 (ip), vehicle: acetone) 0 of 6; (dose: 400.0 mg/kg/injection, schedule: Q04DX003 (ip), vehicle: acetone) 0 of 6.

On to `Clc1ccc(C2c3ccccc3C[n+]3ccccc32)cc1` (stereo not given), for which the survivor count reads like this: (dose: 55.0 mg/kg/injection, schedule: Q01DX009 (ip), vehicle: Klucel (hydroxypropylcellulose) (HPC)) 0 of 6; (dose: 80.0 mg/kg/injection, schedule: Q01DX009 (ip), vehicle: Klucel (hydroxypropylcellulose) (HPC)) 0 of 6; (dose: 100.0 mg/kg/injection, schedule: Q04DX003 (ip), vehicle: Klucel (hydroxypropylcellulose) (HPC)) 0 of 6; (dose: 200.0 mg/kg/injection, schedule: Q04DX003 (ip), vehicle: Klucel (hydroxypropylcellulose) (HPC)) 0 of 6; under setting [5], 0 of 6.

Take `CN(C)CCCOS(C)(=O)=O`: the survivor count under setting [4] is recorded as 1 of 3.
